In article PMC6362308:
No constants are given. Whether binding was seen depends on the method and setting. Binding seen in cells or lysates may run through a third protein. Some binding calls cover weakened binding; strength is not graded here.

Sequences of proteins named here, by UniProt entry; tags and fusion partners are left off.
UniProt Q14974: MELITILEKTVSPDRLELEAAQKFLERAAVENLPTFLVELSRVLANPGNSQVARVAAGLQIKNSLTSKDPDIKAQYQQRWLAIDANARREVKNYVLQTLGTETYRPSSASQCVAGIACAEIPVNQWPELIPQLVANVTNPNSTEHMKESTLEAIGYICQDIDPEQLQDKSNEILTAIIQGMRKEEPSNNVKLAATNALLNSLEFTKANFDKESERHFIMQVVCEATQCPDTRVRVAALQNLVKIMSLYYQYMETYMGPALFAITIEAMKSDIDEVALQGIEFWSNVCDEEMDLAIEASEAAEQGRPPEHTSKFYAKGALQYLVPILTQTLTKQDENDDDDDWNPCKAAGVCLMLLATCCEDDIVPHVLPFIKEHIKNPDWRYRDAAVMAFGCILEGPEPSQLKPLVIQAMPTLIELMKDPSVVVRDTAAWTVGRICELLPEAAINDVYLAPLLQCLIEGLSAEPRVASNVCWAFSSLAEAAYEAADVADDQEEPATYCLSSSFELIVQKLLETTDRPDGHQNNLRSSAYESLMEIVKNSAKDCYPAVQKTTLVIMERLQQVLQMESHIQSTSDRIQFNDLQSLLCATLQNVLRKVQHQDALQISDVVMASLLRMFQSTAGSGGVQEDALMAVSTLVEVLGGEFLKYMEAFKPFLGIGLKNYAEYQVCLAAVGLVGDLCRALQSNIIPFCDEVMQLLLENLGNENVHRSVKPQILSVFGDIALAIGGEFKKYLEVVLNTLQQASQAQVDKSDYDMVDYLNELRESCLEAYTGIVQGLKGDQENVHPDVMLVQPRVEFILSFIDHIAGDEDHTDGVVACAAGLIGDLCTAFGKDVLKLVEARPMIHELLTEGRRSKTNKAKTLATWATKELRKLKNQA

Biological target: importin β (bait of the NLS-MAP purification) (UniProt Q14974)
Test: pull-down; data not shown: sequential purification of microtubule-binding and importin-β-binding proteins (Yokoyama et al, 2013)

binding: binds
B1: RECQL4 identified in the sequential purification of microtubule- and importin-β-binding proteins (protein, UniProt O94761 1-1208)
chain: MERLRDVRERLQAWERAFRRQRGRRPSQDDVEAAPEETRALYREYRTLKRTTGQAGGGLRSSESLPAAAEEAPEPRCWGPHLNRAATKSPQSTPGRSRQGSVPDYGQRLKANLKGTLQAGPALGRRPWPLGRASSKASTPKPPGTGPVPSFAEKVSDEPPQLPEPQPRPGRLQHLQASLSQRLGSLDPGWLQRCHSEVPDFLGAPKACRPDLGSEESQLLIPGESAVLGPGAGSQGPEASAFQEVSIRVGSPQPSSSGGEKRRWNEEPWESPAQVQQESSQAGPPSEGAGAVAVEEDPPGEPVQAQPPQPCSSPSNPRYHGLSPSSQARAGKAEGTAPLHIFPRLARHDRGNYVRLNMKQKHYVRGRALRSRLLRKQAWKQKWRKKGECFGGGGATVTTKESCFLNEQFDHWAAQCPRPASEEDTDAVGPEPLVPSPQPVPEVPSLDPTVLPLYSLGPSGQLAETPAEVFQALEQLGHQAFRPGQERAVMRILSGISTLLVLPTGAGKSLCYQLPALLYSRRSPCLTLVVSPLLSLMDDQVSGLPPCLKAACIHSGMTRKQRESVLQKIRAAQVHVLMLTPEALVGAGGLPPAAQLPPVAFACIDEAHCLSQWSHNFRPCYLRVCKVLRERMGVHCFLGLTATATRRTASDVAQHLAVAEEPDLHGPAPVPTNLHLSVSMDRDTDQALLTLLQGKRFQNLDSIIIYCNRREDTERIAALLRTCLHAAWVPGSGGRAPKTTAEAYHAGMCSRERRRVQRAFMQGQLRVVVATVAFGMGLDRPDVRAVLHLGLPPSFESYVQAVGRAGRDGQPAHCHLFLQPQGEDLRELRRHVHADSTDFLAVKRLVQRVFPACTCTCTRPPSEQEGAVGGERPVPKYPPQEAEQLSHQAAPGPRRVCMGHERALPIQLTVQALDMPEEAIETLLCYLELHPHHWLELLATTYTHCRLNCPGGPAQLQALAHRCPPLAVCLAQQLPEDPGQGSSSVEFDMVKLVDSMGWELASVRRALCQLQWDHEPRTGVRRGTGVLVEFSELAFHLRSPGDLTAEEKDQICDFLYGRVQARERQALARLRRTFQAFHSVAFPSCGPCLEQQDEERSTRLKDLLGRYFEEEEGQEPGGMEDAQGPEPGQARLQDWEDQVRCDIRQFLSLRPEEKFSSRAVARIFHGIGSPCYPAQVYGQDRRFWRKYLHLSFHALVGLATEELLQVAR
